Our source for the step yield values is patent publication US9192569B2 (Novacta Biosystems Limited, priority 2010, dated 2015).

The data set can be described thus: general procedure: peptide synthesis; PyBOP, diisopropylethylamine. As to conditions: late stage modification step.
As to “Deoxyactagardine B 19-[4-(2′-(3″,5″-dinitrobenzamido)-ethyl)-piperazine]monocarboxamide”, the step yield is 20%.

On to “Deoxyactagardine B [2-(3′,5′-dichlorobenzylamino)ethylamine]monocarboxamide”, for which the step yield is recorded as 51%.

On to “Deoxyactagardine B [3-(2′-aminomethyl-4′-(2″,4″-dichlorophenyl)-furanyl)propylamine]monocarboxamide”, for which the step yield stood at 11%.

With “Deoxyactagardine B [3-(2′-aminomethyl-4′-(2″-nitro-4″-chlorophenyl)-furanyl)propylamine]monocarboxamide”, the step yield is given as 11%.

Take “Deoxyactagardine B [3-(3′,5′-dichlorobenzamido)propylamine]monocarboxamide”: the step yield turned out to be 61%.

In the case of “Deoxyactagardine B [3-(3′,5′-dichlorobenzylamino)-1-propylamine]monocarboxamide”, the step yield is 33%.

With “Deoxyactagardine B [3-(3′-(3″,5″-dichlorobenzylamino)propylamino) propylamine]monocarboxamide”, the step yield was found to be 22%.

“Deoxyactagardine B [4-(2′-(3″,5″-dichlorobenzylamino)ethyl)piperazine]monocarboxamide”: the step yield is 15%.

“Deoxyactagardine B [4-(3′,5′-dichlorobenzylaminomethyl)benzyl]monocarboxamide” showed a step yield of 37%.

Substance “Deoxyactagardine B [5-(3′,5′-dichlorobenzylamino)-pentylamine]monocarboxamide” showed a step yield of 36%.

As to “Deoxyactagardine B [6-(2′,4′,6′-trichlorobenzenesulfonamido)hexylamine]monocarboxamide”, the step yield came out at 73%.

In turn, “Deoxyactagardine B [6-(3′,5′-dichlorobenzylamino)-hexylamine]monocarboxamide” returned a step yield of 51%.

For the substance “Deoxyactagardine B [7-(3′,5′-dichlorobenzylamino)-1-heptylamine]monocarboxamide”, the step yield was 35%.

Turning to “Deoxyactagardine B [8-(3′,5′-dichlorobenzylamino)octylamine]monocarboxamide”, the step yield is 63%.
